In ChEMBL document CHEMBL2163249, “Exploration of natural compounds as sources of new bifunctional scaffolds targeting cholinesterases and beta amyloid aggregation: the case of chelerythrine” (Bioorg Med Chem, 2012) one finds inhibition data, which are given here for 1 compound.

By UniProt entry, the sequences of proteins in these tests, tags left out. Where a name states a change or a piece, a line headed by the entry shows the natural chain unless it says otherwise.
UniProt O42275: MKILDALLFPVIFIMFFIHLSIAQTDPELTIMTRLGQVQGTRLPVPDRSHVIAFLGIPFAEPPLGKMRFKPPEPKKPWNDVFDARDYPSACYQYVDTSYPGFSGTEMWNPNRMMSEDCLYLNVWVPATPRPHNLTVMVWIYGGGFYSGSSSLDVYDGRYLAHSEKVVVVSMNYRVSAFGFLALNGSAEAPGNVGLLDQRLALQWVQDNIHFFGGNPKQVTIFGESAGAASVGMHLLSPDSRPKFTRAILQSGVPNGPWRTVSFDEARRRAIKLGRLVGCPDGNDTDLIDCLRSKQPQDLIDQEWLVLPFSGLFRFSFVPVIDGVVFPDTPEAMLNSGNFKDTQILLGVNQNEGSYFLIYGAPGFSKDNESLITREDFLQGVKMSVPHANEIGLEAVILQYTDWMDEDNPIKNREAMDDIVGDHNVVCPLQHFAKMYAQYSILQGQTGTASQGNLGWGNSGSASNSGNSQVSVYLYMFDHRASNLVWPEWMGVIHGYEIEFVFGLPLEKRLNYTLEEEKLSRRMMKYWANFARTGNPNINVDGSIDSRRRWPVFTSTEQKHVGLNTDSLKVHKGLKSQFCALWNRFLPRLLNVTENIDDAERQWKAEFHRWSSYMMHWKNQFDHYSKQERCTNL
UniProt P81908, whole entry: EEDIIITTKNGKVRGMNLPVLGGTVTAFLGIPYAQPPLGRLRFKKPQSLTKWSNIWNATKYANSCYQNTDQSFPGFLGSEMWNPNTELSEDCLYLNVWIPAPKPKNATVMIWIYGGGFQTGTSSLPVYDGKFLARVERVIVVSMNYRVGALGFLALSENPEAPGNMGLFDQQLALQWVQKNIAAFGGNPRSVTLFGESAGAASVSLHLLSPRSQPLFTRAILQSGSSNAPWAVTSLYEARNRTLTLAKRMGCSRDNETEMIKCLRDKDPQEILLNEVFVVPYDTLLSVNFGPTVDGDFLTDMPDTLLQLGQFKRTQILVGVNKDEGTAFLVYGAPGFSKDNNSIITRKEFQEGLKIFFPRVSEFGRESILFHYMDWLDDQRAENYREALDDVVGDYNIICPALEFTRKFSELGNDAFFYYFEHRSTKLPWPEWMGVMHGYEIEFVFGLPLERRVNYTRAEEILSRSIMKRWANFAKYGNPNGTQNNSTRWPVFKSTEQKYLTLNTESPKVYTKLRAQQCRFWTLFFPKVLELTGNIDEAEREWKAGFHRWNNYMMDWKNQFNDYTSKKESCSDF

Test [1] deals with Acetylcholinesterase (Electrophorus electricus) (UniProt O42275). The note with it: at 2 mg/mL.
The target of test [2] is Cholinesterase (Equus caballus) (UniProt P81908). The note with it: at 2 mg/mL.

Each structure is given as a SMILES string.

As usually defined, the inhibition is the change of the read-out against control, counted positive when it falls.

In the case of `CN1[C@@H]2CC[C@H]1C[C@@H](OC(=O)C(O)c1ccccc1)C2` (some centres not stated), the results for the inhibition in test [1] and in test [2] were -3.08% and 5.53%, respectively.
